This note sets out measurements from patent US7084261B2 (Hoffmann-La Roche Inc., priority 2002, dated 2006).

This series in a line: peptide synthesis. As to conditions: whole synthesis.

Strings that start with PEPTIDE1 are HELM notation: dots part the residues, brackets hold end groups and non-standard residues.

Regarding “PEPTIDE1{W.Q.E.W.E.Q.K.I.T.A.L.L.E.Q.A.Q.I.Q.Q.E.K.N.E.Y.E.L.Q.K.L.D.K.W.A.S.L.W.E.W.F.[am]}$$$$V2.0”, the “purity (crude or final not stated)” value came out at 93.7%.
